# Data: the supplement of paper PMC9135407
# “And” between values parts separate entries of the source, which are not always exact repeats. Equal values may be shown once. Where a name gives a salt, the structure may show the parent alone. ± gives the standard deviation of the averaged measurements. The list shows a part of the results. Part of the spread comes from offsets between plates or batches.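 Assay uses culture-activated primary human stellate myofibroblasts; lipid droplet recovery indicates inactivation. Measured: proportion of Hoechst-counted cells over a plate-specific Bodipy cutoff, duplicate wells, DMSO and nortriptyline as per-plate negative and positive controls. A hit scores, control-normalized, above the plate's top-tenth-percentile nortriptyline wells or ranks among its three best wells. Final well concentrations not reported.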
# Tested on: primary human hepatic stellate cells (donor 1)
# Assay: percent Bodipy-positive cells; higher = more lipid droplet accumulation
# Settings: 48 h
# Method: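 Primary lipid accumulation screen in primary human hepatic stellate cell myofibroblasts (donor 1, passage 8) in 384-well plates. 100 nL of library compound was pin-transferred into 30 µL medium in duplicate, and cells were treated for 48 h. The 'Scaled' score combines distance from plate baseline, toxicity and reproducibility penalties, and is normalised to nortriptyline (positive) and DMSO (negative) controls on each plate. A hit is defined as scaled >0.85 or among the top 3 wells per plate.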
# [1] = library stock concentration: 10 mM
# [2] = library stock concentration: 3.33 mM
# [3] = library stock concentration: 6.8 mM
# [4] = library stock concentration: 1 mM
# [5] = library stock concentration: 80 uM
# [6] = library stock concentration: 400 uM
# [7] = library stock concentration: 2 mM
structure (smiles),measurement,setting,value
"Nc1ccc2c3c(cccc13)C(=O)NC2=O [4-Amino-1,8-naphthalimide]",percent Bodipy-positive cells,[1],85.4 ± 1.9%
CC(S)C(=O)NCC(=O)O (configuration not stated),percent Bodipy-positive cells,[1],31.7 ± 5.2%
CC(S)C(=O)NCC(=O)O (configuration not stated) [Tiopronin],percent Bodipy-positive cells,[2],12.3 ± 5.7%
same,percent Bodipy-positive cells,[1],21.7 ± 1.6%
COc1ccc(OC)c(C(O)CNC(=O)CN)c1 (configuration not stated) [Pro-Amatine],percent Bodipy-positive cells,[1],22.2 ± 8.6%
COc1ccc(OC)c(C(O)CNC(=O)CN)c1 (configuration not stated) [Midodrine hydrochloride],percent Bodipy-positive cells,,35.1 ± 8.8%
same,percent Bodipy-positive cells,library stock concentration: 6.9 mM,10.4 ± 0.93%
same,percent Bodipy-positive cells,[1],40.3 ± 5.9%
CN(C)CCN1C(=O)c2ccccc2N(C)c2ccccc21 [Dibenzepine HCl],percent Bodipy-positive cells,[3],14.5 ± 8%
CC(=O)NS(=O)(=O)c1ccc(NC(=O)c2ccccc2C(=O)O)cc1,percent Bodipy-positive cells,[1],39.8 ± 13%
CN1CCC(NC(=O)C2=CC(=C3C(O)=CC(=O)C=C3Oc3ccc([N+](=O)[O-])cc3)ON2)CC1,percent Bodipy-positive cells,[1],93.2 ± 1.4%
CC[C@H](C)[C@H](N)C1=N[C@H](C(=O)N[C@@H](CC(C)C)C(=O)N[C@H](CCC(=O)O)C(=O)N[C@H](C(=O)N[C@H]2CCCCNC(=O)[C@H](CC(N)=O)NC(=O)[C@@H](CC(=O)O)NC(=O)[C@H](Cc3cnc[nH]3)NC(=O)[C@@H](Cc3ccccc3)NC(=O)[C@H]([C@@H](C)CC)NC(=O)[C@@H](CCCN)NC2=O)[C@@H](C)CC)CS1 [Bacitracin],percent Bodipy-positive cells,,8.35 ± 0.68%
same,percent Bodipy-positive cells,library stock concentration: 1.4 mM,4.39 ± 0.19%
same,percent Bodipy-positive cells,[2],9.17 ± 1.9%
same,percent Bodipy-positive cells,[1],28.6% and 13.5%
CCCCCCCCCCCCCCCCOCC(CO)OC (configuration not stated) [1-Hexadecyl-2-O-methyl-glycerol],percent Bodipy-positive cells,[4],8.53 ± 2.4%
O=C(CCc1ccc(O)cc1)c1c(O)cc(O)cc1O [Phloretin],percent Bodipy-positive cells,[2],7.33 ± 1.1%
same,percent Bodipy-positive cells,[1],22.4% and 18.3%
OC(CNCC(O)C1CCc2cc(F)ccc2O1)C1CCc2cc(F)ccc2O1 (configuration not stated) [Nebivolol],percent Bodipy-positive cells,[2],69.7 ± 14%
same,percent Bodipy-positive cells,[1],83.7 ± 11%
CN(CC(=O)N(Cc1ccc(C2CCCCC2)cc1)c1ccc(C(=O)O)cc1)S(=O)(=O)c1c(F)c(F)c(F)c(F)c1F,percent Bodipy-positive cells,[2],49 ± 1.4%
same,percent Bodipy-positive cells,[1],100%
Oc1c(I)cc(Cl)c2cccnc12 [Clioquinol],percent Bodipy-positive cells,,6.56 ± 1.7%
C[C@@H](O)[C@H]1C(=O)N2C(C(=O)O)=C(S[C@@H]3CN[C@H](CNS(N)(=O)=O)C3)[C@H](C)[C@H]12 [Doripenem Hydrate],percent Bodipy-positive cells,[2],9.01 ± 2.4%
same,percent Bodipy-positive cells,[1],10.6 ± 0.87%
"COc1cc2nccc(Oc3ccc(NC(=O)Nc4cc(C)on4)c(Cl)c3)c2cc1OC [AV951 (KRN951, Tivozanib) (10 mM)]",percent Bodipy-positive cells,[1],63.7 ± 8.3%
COc1cc2nccc(Oc3ccc(NC(=O)Nc4cc(C)on4)c(Cl)c3)c2cc1OC,percent Bodipy-positive cells,[5],6.57 ± 1.5%
same,percent Bodipy-positive cells,[6],7.53 ± 4.1%
same,percent Bodipy-positive cells,[7],12.5 ± 1.4%
same,percent Bodipy-positive cells,[1],34.9 ± 5.4%
"COc1cc2nccc(Oc3ccc(NC(=O)Nc4cc(C)on4)c(Cl)c3)c2cc1OC [AV951 (KRN951, Tivozanib) (0.4 mM)]",percent Bodipy-positive cells,[6],14.9 ± 5.7%
COc1cc2nccc(Oc3ccc(NC(=O)Nc4cc(C)on4)c(Cl)c3)c2cc1OC [Tivozanib (AV-951)],percent Bodipy-positive cells,[2],13.6 ± 0.69%
same,percent Bodipy-positive cells,[1],34.3 ± 5.4%
"COc1cc2nccc(Oc3ccc(NC(=O)Nc4cc(C)on4)c(Cl)c3)c2cc1OC [AV951 (KRN951, Tivozanib) (2 mM)]",percent Bodipy-positive cells,[7],30.3 ± 15%
COc1cc2nccc(Oc3ccc(NC(=O)Nc4cc(C)on4)c(Cl)c3)c2cc1OC [VEGFR Tyrosine Kinase Inhibitor IV],percent Bodipy-positive cells,[2],12.7 ± 1.3%
CC(C)(C#N)c1cc(Cn2cncn2)cc(C(C)(C)C#N)c1 [Anastrozole],percent Bodipy-positive cells,[2],5.57 ± 0.41%
same,percent Bodipy-positive cells,[3],7.2 ± 1.2%
same,percent Bodipy-positive cells,[1],18.4 ± 10%
CC(C)(C#N)c1cc(Cn2cncn2)cc(C(C)(C)C#N)c1,percent Bodipy-positive cells,[1],7.9 ± 4.5%
C(=C/CCN(C)C)(/c1c2cccc1)\c3c(cccc3)CC2.Cl [Amitriptyline hydrochloride],percent Bodipy-positive cells,[1],97.7 ± 0.98%
CCCCCCCCCCCCCCC[C@H](O)[C@H](N)CO (racemic) [DL-erythro-Dihydrosphingosine],percent Bodipy-positive cells,[1],100%
"COC(=O)/C=C/c1cc(O)ccc1O [Methyl 2,5-dihydroxycinnamate]",percent Bodipy-positive cells,[1],20.2 ± 3.1%
CC(=O)c1ccc2c(c1)N(CCCN(C)C)c1ccccc1S2 [Acetopromazine maleate salt],percent Bodipy-positive cells,,71.6 ± 2%
CC(=O)c1ccc2c(c1)N(CCCN(C)C)c1ccccc1S2 [Acepromazine maleate],percent Bodipy-positive cells,library stock concentration: 4.5 mM,60.9 ± 3.5%
COc1cccc(-c2cc(=O)c3ccccc3o2)c1N,percent Bodipy-positive cells,[4],15.5 ± 13%
same,percent Bodipy-positive cells,[2],12% and 15.2%
same,percent Bodipy-positive cells,[1],17.7% and 22.3% and 10.9%
same,percent Bodipy-positive cells,library stock concentration: 18.7 mM,23.4 ± 3.8%
COc1ccc(N(C(=O)Oc2cc(C(=O)Nc3cccc(C(F)(F)F)c3)ccc2C)c2ccnc(Nc3ccc(N4CCN(C)CC4)cc3)n2)c(OC)c1,percent Bodipy-positive cells,[5],16.9 ± 1.4%
same,percent Bodipy-positive cells,[6],31.4 ± 1.8%
same,percent Bodipy-positive cells,[7],49.4 ± 3.7%
same,percent Bodipy-positive cells,[1],99 ± 1.4%
CNC(=O)c1cccc(-c2ccc3c(N4CCOC[C@@H]4C)nc(N4CCOC[C@@H]4C)nc3n2)c1,percent Bodipy-positive cells,[5],8.89 ± 0.28%
same,percent Bodipy-positive cells,[6],6.34 ± 0.56%
same,percent Bodipy-positive cells,[7],4.61 ± 0.99%
same,percent Bodipy-positive cells,[2],4.99 ± 0.63%
same,percent Bodipy-positive cells,[1],12.1% and 9.19%
C=CCNC(N)=S [Allylthiourea],percent Bodipy-positive cells,[2],10.1 ± 0.83%
same,percent Bodipy-positive cells,[1],22.9 ± 11%
C=CCNC(N)=S,percent Bodipy-positive cells,[1],35.3 ± 7.9%
CN(C)CCOC(C)(c1ccccc1)c1ccccn1 (configuration not stated) [Doxylamine succinate],percent Bodipy-positive cells,,61.9 ± 30%
same,percent Bodipy-positive cells,library stock concentration: 5.1 mM,2.29 ± 0.21%
CN(C)CCOC(C)(c1ccccc1)c1ccccn1 (configuration not stated),percent Bodipy-positive cells,[1],6.94 ± 1.4%
CN(C)CCOC(C)(c1ccccc1)c1ccccn1 (configuration not stated) [Doxylamine Succinate],percent Bodipy-positive cells,[2],7.95 ± 3.1%
same,percent Bodipy-positive cells,[1],43.8 ± 4.8%
OC(CCCN1CCN(c2ncc(F)cn2)CC1)c1ccc(F)cc1 (configuration not stated),percent Bodipy-positive cells,[1],14 ± 4.8%
COc1cc(/C=C/C(N)=O)cc(OC)c1OC,percent Bodipy-positive cells,[1],44.5 ± 0.7%
O=C1c2ccc(O)c(O)c2C(=O)c2c(O)ccc(O)c21 [Quinalizarin],percent Bodipy-positive cells,[1],41.9 ± 11%
CCc1cc(Nc2nccc(-c3c(-c4ccc(OC)c(C(=O)Nc5c(F)cccc5F)c4)nc4ccccn34)n2)c(OC)cc1N1CCC(N2CCN(S(C)(=O)=O)CC2)CC1,percent Bodipy-positive cells,[5],10.5 ± 4.6%
same,percent Bodipy-positive cells,[6],9.22 ± 3.3%
same,percent Bodipy-positive cells,[7],7.08 ± 4.1%
same,percent Bodipy-positive cells,[2],8.05 ± 1.4%
same,percent Bodipy-positive cells,[1],8.39% and 11.6%
CN(C(=O)C(Cl)Cl)c1ccc(OC(=O)c2ccco2)cc1 [Diloxanide furoate],percent Bodipy-positive cells,,8.91 ± 0.62%
same,percent Bodipy-positive cells,library stock concentration: 6.1 mM,9.08 ± 6.1%
Nc1ccn([C@H]2CC[C@@H](CO)O2)c(=O)n1 [Zalcitabine],percent Bodipy-positive cells,,9.74 ± 0.11%
same,percent Bodipy-positive cells,[2],13.7 ± 6.9%
same,percent Bodipy-positive cells,[1],18.1 ± 5.1%
"Nc1ccn([C@H]2CC[C@@H](CO)O2)c(=O)n1 [2',3' - dideoxycytidine]",percent Bodipy-positive cells,library stock concentration: 9.5 mM,4.81 ± 1.9%
Nc1ccn([C@H]2CC[C@@H](CO)O2)c(=O)n1,percent Bodipy-positive cells,[1],8.89 ± 1.7%
"Nc1ccn([C@H]2CC[C@@H](CO)O2)c(=O)n1 [2',3'-dideoxycytidine]",percent Bodipy-positive cells,[1],18.3 ± 1.6%
CN1CCC(Nc2ncc3ncnc(Nc4ccc(F)c(Cl)c4)c3n2)CC1.Cl.Cl [BIBX 1382 dihydrochloride],percent Bodipy-positive cells,[1],95.3 ± 0.97%

# Given with tabs: entries from further up.
structure (smiles)	measurement	setting	value
Nc1ccc2c3c(cccc13)C(=O)NC2=O [4-Amino-1,8-naphthalimide]	percent Bodipy-positive cells	[1]	85.4 ± 1.9%
COc1ccc(OC)c(C(O)CNC(=O)CN)c1 (configuration not stated) [Midodrine hydrochloride]	percent Bodipy-positive cells		35.1 ± 8.8%
same	percent Bodipy-positive cells	[1]	40.3 ± 5.9%
CN(C)CCN1C(=O)c2ccccc2N(C)c2ccccc21 [Dibenzepine HCl]	percent Bodipy-positive cells	[3]	14.5 ± 8%
CC(=O)NS(=O)(=O)c1ccc(NC(=O)c2ccccc2C(=O)O)cc1	percent Bodipy-positive cells	[1]	39.8 ± 13%
CC[C@H](C)[C@H](N)C1=N[C@H](C(=O)N[C@@H](CC(C)C)C(=O)N[C@H](CCC(=O)O)C(=O)N[C@H](C(=O)N[C@H]2CCCCNC(=O)[C@H](CC(N)=O)NC(=O)[C@@H](CC(=O)O)NC(=O)[C@H](Cc3cnc[nH]3)NC(=O)[C@@H](Cc3ccccc3)NC(=O)[C@H]([C@@H](C)CC)NC(=O)[C@@H](CCCN)NC2=O)[C@@H](C)CC)CS1 [Bacitracin]	percent Bodipy-positive cells	[2]	9.17 ± 1.9%
OC(CNCC(O)C1CCc2cc(F)ccc2O1)C1CCc2cc(F)ccc2O1 (configuration not stated) [Nebivolol]	percent Bodipy-positive cells	[2]	69.7 ± 14%
COc1cc2nccc(Oc3ccc(NC(=O)Nc4cc(C)on4)c(Cl)c3)c2cc1OC	percent Bodipy-positive cells	[5]	6.57 ± 1.5%
same	percent Bodipy-positive cells	[6]	7.53 ± 4.1%
COc1cc2nccc(Oc3ccc(NC(=O)Nc4cc(C)on4)c(Cl)c3)c2cc1OC [Tivozanib (AV-951)]	percent Bodipy-positive cells	[1]	34.3 ± 5.4%
CC(=O)c1ccc2c(c1)N(CCCN(C)C)c1ccccc1S2 [Acetopromazine maleate salt]	percent Bodipy-positive cells		71.6 ± 2%
COc1cccc(-c2cc(=O)c3ccccc3o2)c1N	percent Bodipy-positive cells	[2]	12% and 15.2%
same	percent Bodipy-positive cells	[1]	17.7% and 22.3% and 10.9%
CN(C)CCOC(C)(c1ccccc1)c1ccccn1 (configuration not stated) [Doxylamine succinate]	percent Bodipy-positive cells	library stock concentration: 5.1 mM	2.29 ± 0.21%
CCc1cc(Nc2nccc(-c3c(-c4ccc(OC)c(C(=O)Nc5c(F)cccc5F)c4)nc4ccccn34)n2)c(OC)cc1N1CCC(N2CCN(S(C)(=O)=O)CC2)CC1	percent Bodipy-positive cells	[2]	8.05 ± 1.4%
CN(C(=O)C(Cl)Cl)c1ccc(OC(=O)c2ccco2)cc1 [Diloxanide furoate]	percent Bodipy-positive cells		8.91 ± 0.62%
Nc1ccn([C@H]2CC[C@@H](CO)O2)c(=O)n1 [Zalcitabine]	percent Bodipy-positive cells		9.74 ± 0.11%
same	percent Bodipy-positive cells	[1]	18.1 ± 5.1%
Nc1ccn([C@H]2CC[C@@H](CO)O2)c(=O)n1 [2',3' - dideoxycytidine]	percent Bodipy-positive cells	library stock concentration: 9.5 mM	4.81 ± 1.9%
